# Experimental data: paper PMC4967943
# No constants are given. Whether binding was seen depends on the method and setting. In cells and extracts the contact can be indirect. Some entries that bind do so weakly or less than the wild type. Sequences can lack the tags named with a protein.
# T1: FADD (UniProt Q61160)
# T1 sequence: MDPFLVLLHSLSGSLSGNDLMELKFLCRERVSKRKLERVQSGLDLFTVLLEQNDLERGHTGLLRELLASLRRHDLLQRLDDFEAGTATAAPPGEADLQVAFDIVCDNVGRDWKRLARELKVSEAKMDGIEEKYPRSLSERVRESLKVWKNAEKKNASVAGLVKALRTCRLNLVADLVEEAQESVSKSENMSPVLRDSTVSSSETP
# T2: Flag‐RIP140 (UniProt Q8CBD1)
# T2 sequence: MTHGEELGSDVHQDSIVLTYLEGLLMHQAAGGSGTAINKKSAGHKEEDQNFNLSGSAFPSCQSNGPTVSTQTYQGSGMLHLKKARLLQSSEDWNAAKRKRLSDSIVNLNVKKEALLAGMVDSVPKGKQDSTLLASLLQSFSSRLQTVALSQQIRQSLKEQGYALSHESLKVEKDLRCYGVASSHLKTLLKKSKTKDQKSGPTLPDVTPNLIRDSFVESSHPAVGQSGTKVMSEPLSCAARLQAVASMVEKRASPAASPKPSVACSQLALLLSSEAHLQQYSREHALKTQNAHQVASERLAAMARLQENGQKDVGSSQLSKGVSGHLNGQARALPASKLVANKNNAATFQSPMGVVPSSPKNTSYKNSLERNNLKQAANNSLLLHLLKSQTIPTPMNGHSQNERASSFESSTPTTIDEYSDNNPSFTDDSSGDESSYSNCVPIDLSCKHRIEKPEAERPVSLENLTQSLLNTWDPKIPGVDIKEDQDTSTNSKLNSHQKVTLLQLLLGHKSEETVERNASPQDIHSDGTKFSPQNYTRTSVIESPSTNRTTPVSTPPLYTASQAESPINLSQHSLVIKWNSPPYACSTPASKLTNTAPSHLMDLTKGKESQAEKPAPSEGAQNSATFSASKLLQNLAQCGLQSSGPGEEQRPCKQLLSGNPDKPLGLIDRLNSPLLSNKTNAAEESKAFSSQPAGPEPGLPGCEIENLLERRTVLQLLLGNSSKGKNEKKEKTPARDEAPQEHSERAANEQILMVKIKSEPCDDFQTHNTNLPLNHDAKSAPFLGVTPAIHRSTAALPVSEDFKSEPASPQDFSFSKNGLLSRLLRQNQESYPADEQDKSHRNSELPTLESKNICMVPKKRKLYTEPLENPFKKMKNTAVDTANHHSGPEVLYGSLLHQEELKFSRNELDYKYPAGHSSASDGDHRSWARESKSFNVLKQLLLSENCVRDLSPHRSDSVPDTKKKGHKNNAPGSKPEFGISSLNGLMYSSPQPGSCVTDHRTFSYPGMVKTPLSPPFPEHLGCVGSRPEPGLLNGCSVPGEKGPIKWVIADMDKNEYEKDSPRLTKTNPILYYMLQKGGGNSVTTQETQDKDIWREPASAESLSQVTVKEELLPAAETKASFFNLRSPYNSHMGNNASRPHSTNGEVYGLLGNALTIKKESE
# Columns and labels:
# FADD = target: T1, FADD; experiment: co-IP; lysates of transfected 293T cells, immunoprecipitation with an anti-Flag antibody, partner detected with anti-HA
# Flag‐RIP140 = target: T2, Flag‐RIP140; experiment: as above
Binder,binding (FADD),binding (Flag‐RIP140)
"HA‐PPAR‐α (protein, UniProt P23204 1-468) MVDTESPICPLSPLEADDLESPLSEEFLQEMGNIQEISQSIGEESSGSFGFADYQYLGSCPGSEGSVITDTLSPASSPSSVSCPVIPASTDESPGSALNIECRICGDKASGYHYGVHACEGCKGFFRRTIRLKLVYDKCDRSCKIQKKNRNKCQYCRFHKCLSVGMSHNAIRFGRMPRSEKAKLKAEILTCEHDLKDSETADLKSLGKRIHEAYLKNFNMNKVKARVILAGKTSNNPPFVIHDMETLCMAEKTLVAKMVANGVEDKEAEVRFFHCCQCMSVETVTELTEFAKAIPGFANLDLNDQVTLLKYGVYEAIFTMLSSLMNKDGMLIAYGNGFITREFLKNLRKPFCDIMEPKFDFAMKFNALELDDSDISLFVAAIICCGDRPGLLNIGYIEKLQEGIVHVLKLHLQSNHPDDTFLFPKLLQKMVDLRQLVTEHAQLVQVIKKTESDAALHPLLQEIYRDMY",binds,–
"FADD (protein, UniProt Q61160 1-205) MDPFLVLLHSLSGSLSGNDLMELKFLCRERVSKRKLERVQSGLDLFTVLLEQNDLERGHTGLLRELLASLRRHDLLQRLDDFEAGTATAAPPGEADLQVAFDIVCDNVGRDWKRLARELKVSEAKMDGIEEKYPRSLSERVRESLKVWKNAEKKNASVAGLVKALRTCRLNLVADLVEEAQESVSKSENMSPVLRDSTVSSSETP",–,binds
